Data: patent publication US20160361255A1, “Peptide Nanotubes for Slow Release of Drugs at Peripheral Nerve Injury” (The University of Toledo, priority 2015, published 2016)
For at least one compound, name, drawing or mass did not settle the structure.

System: rat embryonic cortical neurons
Experiment: Scholl ring analysis of cortical neurons exposed to 4-HNE
Type: cell-based
Conditions: pretreatment 2 days, then 25 μM 4-HNE 1 day
Protocol: Rat embryonic cortical neurons were treated with mock (FIG. 11C), 1 μM HA-GAGR (high acyl gellan gum), 1 μM dextran, 100 μM ascorbate or 1 μM midi-GAGR (FIG. 11D) for 2 days and then with 25 μM 4-hydroxynonenal (4-HNE), a lipid peroxide, for 1 day. After fixation, neurons were immunostained with anti-synaptophysin antibody (green) and rhodamine-phalloidin (actin: red). Scholl ring analysis was performed. Neurons pre-treated with mock, dextran or ascorbate lost neuritis (neuritic atrophy) in the presence of 4-HNE.

## O=C1O[C@H]([C@@H](O)CO)C(O)=C1O [ascorbate]
  neurites (neuritic atrophy) in the presence of 4-HNE: lost neuritis
